Reference: PubChem BioAssay (NCATS)
Inconclusive means that the source gave no clear call. Such entries were picked first, then a sample of the others. For some assays here: Potencies of inconclusive entries are doubtful fits and often do not repeat. Active and inactive are the calls of the source. The call rests on the fitted dose curve; in most records, active means well fitted curve in the direction sought with a large enough effect; inconclusive means small, poorly fitted or top-dose-only effect, or another doubt; inactive means no such curve, though single readings can be large; an effect the other way counts as inactive or inconclusive.

Key:
[1] = Quantitative High-Throughput drug screen in 47 multiple myeloma cell lines against the NCATS MIPE library collection: NCIH929_DSMZ cell viability assay (AID 1918978); conditions: NCI-H929 myeloma viability, CellTiter-Glo ATP, 48 h; viability, % of control: at 45.8 µM (top of the series); further: nearly all actives have a fitted effect of over 35% in size
In short: (§1)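 ATP-based CellTiter-Glo luminescence after 48 h drug exposure (37 °C, 5% CO2) of 500 myeloma cells per well. DMSO-only wells set 100% viability, media-only wells 0%; MIPE 4.0 library added by pin tool.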

[2] = Quantitative High-Throughput drug screen in 47 multiple myeloma cell lines against the NCATS MIPE library collection: MM1S_ATCC cell viability assay (AID 1918980); further: nearly all actives have a fitted effect of over 45% in size
In short: as §1

[3] = Quantitative High-Throughput drug screen in 47 multiple myeloma cell lines against the NCATS MIPE library collection: LP1_DSMZ cell viability assay (AID 1918982); further: nearly all actives have a fitted effect of over 35% in size
In short: as §1

[4] = Quantitative High-Throughput drug screen in 47 multiple myeloma cell lines against the NCATS MIPE library collection: KMS28PE_JCRB cell viability assay (AID 1918983); further: nearly all actives have a fitted effect of over 35% in size
In short: as §1

[5] = Quantitative High-Throughput drug screen in 47 multiple myeloma cell lines against the NCATS MIPE library collection: L363_DSMZ cell viability assay (AID 1918984); conditions: L363 myeloma viability, CellTiter-Glo ATP luminescence, 48 h; viability (% of control): at 45.8 µM (top of the series); further: nearly all actives have a fitted effect of over 40% in size
In short: as §1

[6] = Quantitative High-Throughput drug screen in 47 multiple myeloma cell lines against the NCATS MIPE library collection: KMS34_JCRB cell viability assay (AID 1918985); conditions: KMS34 myeloma viability, CellTiter-Glo ATP luminescence, 48 h; viability, percent of control: at 45.8 µM (top of the series); further: nearly all actives have a fitted effect of over 40% in size
In short: as §1

[7] = Quantitative High-Throughput drug screen in 47 multiple myeloma cell lines against the NCATS MIPE library collection: OCIMY7_PLB cell viability assay (AID 1918987); conditions: OCI-MY7 myeloma viability, CellTiter-Glo ATP, 48 h; viability (% of DMSO): at 45.8 µM (top of the series) unless noted; further: nearly all actives have a fitted effect of over 65% in size
In short: as §1

[8] = Quantitative High-Throughput drug screen in 47 multiple myeloma cell lines against the NCATS MIPE library collection: SKMM1_PLB cell viability assay (AID 1919863); conditions: SKMM1 myeloma viability, CellTiter-Glo ATP, 48 h; viability: active compounds read low; further: nearly all actives have a fitted effect of over 35% in size
In short: as §1

[9] = Quantitative High-Throughput drug screen in 47 multiple myeloma cell lines against the NCATS MIPE library collection: U266_ATCC cell viability assay (AID 1919864); further: nearly all actives have a fitted effect of over 35% in size
In short: as §1

[10] = Quantitative High-Throughput drug screen in 47 multiple myeloma cell lines against the NCATS MIPE library collection: XG6_PLB cell viability assay (AID 1919865); conditions: XG6 myeloma viability, CellTiter-Glo ATP luminescence, 48 h; viability (% of control): at 45.8 µM (top of the series); further: nearly all actives have a fitted effect of over 40% in size
In short: as §1

[11] = Quantitative High-Throughput drug screen in 47 multiple myeloma cell lines against the NCATS MIPE library collection: VP6_DJ cell viability assay (AID 1919867); conditions: ATP luminescence, 48 h; viability (% of DMSO): at 45.8 µM (top of the series); further: nearly all actives have a fitted effect of over 40% in size
In short: as §1

[12] = Quantitative High-Throughput drug screen in 47 multiple myeloma cell lines against the NCATS MIPE library collection: UTMC2_PLB cell viability assay (AID 1919868); conditions: CellTiter-Glo ATP luminescence, 48 h; viability (% of DMSO control): at 45.8 µM (top of the series); further: nearly all actives have a fitted effect of over 55% in size
In short: as §1

[13] = Quantitative High-Throughput drug screen in 47 multiple myeloma cell lines against the NCATS MIPE library collection: PE2_PLB cell viability assay (AID 1919869); conditions: PE2_PLB myeloma cells viability, ATP luminescence, 48 h; viability (% of control): at 45.8 µM (top of the series); further: nearly all actives have a fitted effect of over 35% in size
In short: as §1

[14] = Quantitative High-Throughput drug screen in 47 multiple myeloma cell lines against the NCATS MIPE library collection: OCIMY1_PLB cell viability assay (AID 1918979); further: nearly all actives have a fitted effect of over 35% in size
In short: as §1

[15] = Quantitative High-Throughput drug screen in 47 multiple myeloma cell lines against the NCATS MIPE library collection: MM1R_ATCC cell viability assay (AID 1918981); further: nearly all actives have a fitted effect of over 35% in size
In short: as §1

[16] = Quantitative High-Throughput drug screen in 47 multiple myeloma cell lines against the NCATS MIPE library collection: OCIMY5_PLB cell viability assay (AID 1918988); conditions: OCI-MY5 myeloma viability, ATP luminescence, 48 h; viability, % of control: at 45.8 µM (top of the series); further: nearly all actives have a fitted effect of over 65% in size
In short: as §1

[17] = Quantitative High-Throughput drug screen in 47 multiple myeloma cell lines against the NCATS MIPE library collection: OPM1_PLB cell viability assay (AID 1918989); conditions: CellTiter-Glo, 48 h; viability (% of control): at 45.8 µM (top of the series); further: nearly all actives have a fitted effect of over 40% in size
In short: as §1

[18] = Quantitative High-Throughput drug screen in 47 multiple myeloma cell lines against the NCATS MIPE library collection: XG1_PLB cell viability assay (AID 1919866); further: nearly all actives have a fitted effect of over 35% in size
In short: as §1

[19] = Quantitative High-Throughput drug screen in 47 multiple myeloma cell lines against the NCATS MIPE library collection: PCM6_Riken cell viability assay (AID 1919870); conditions: CellTiter-Glo ATP, 48 h; viability (% of control): at 45.8 µM (top of the series); further: nearly all actives have a fitted effect of over 30% in size
In short: as §1
Potency means the concentration at half of the fitted maximal effect.

CN(C)CCOc1ccc(C(=C(CCCl)c2ccccc2)c2ccccc2)cc1
active: Potency [2] 1.18 µM | Potency [4] 26.4 µM | Potency [7] 5.9 µM | Potency [8] 23.5 µM
inconclusive: Potency [3] 16.6 µM [cytotoxic, single point] | Potency [5] 18.7 µM [cytotoxic, partial curve, poor fit] | viability, percent of control [6] 141% | Potency [9] 8.33 µM [cytotoxic, partial curve, poor fit] | Potency [10] 0.935 µM [cytotoxic, full curve, poor fit] | Potency [13] 0.0418 µM [cytotoxic, full curve, poor fit]
inactive: Potency [1] | Potency [11] | Potency [12]

Cc1ccc(S(=O)(=O)Nc2cc(Cl)ccc2C(=O)Nc2nc(-c3ccccc3)cs2)cc1
inconclusive: Potency [1] 9.35 µM [cytotoxic, single point] | Potency [14] 20.9 µM [cytotoxic, partial curve] | Potency [15] 18.7 µM [cytotoxic, partial curve] | Potency [4] 20.9 µM [cytotoxic, partial curve] | Potency [7] 11.8 µM [cytotoxic, partial curve, poor fit] | Potency [16] 33.2 µM [cytotoxic, single point] | Potency [10] 8.33 µM [cytotoxic, full curve] | Potency [18] 7.43 µM [cytotoxic, full curve] | Potency [12] 0.0469 µM [cytotoxic, full curve, poor fit] | Potency [19] 9.35 µM [cytotoxic, partial curve]
active: Potency [17] 4.69 µM | Potency [11] 6.62 µM

CC(C)c1nn(-c2c(Cl)cccc2Cl)c2nc(Cc3ccc(OCCO)cc3)[nH]c(=O)c12
active: Potency [3] 0.132 µM | Potency [4] 0.296 µM | Potency [6] 0.118 µM | Potency [7] 0.0743 µM | Potency [10] 0.0833 µM
inconclusive: Potency [5] 0.0469 µM [rising, full curve, poor fit]

CCCc1nc(C)c2c(=O)[nH]c(-c3cc(S(=O)(=O)N4CCN(CC)CC4)ccc3OCC)nn12
active: Potency [5] 4.18 µM | Potency [6] 3.72 µM | Potency [7] 5.9 µM | Potency [12] 10.5 µM | Potency [13] 5.9 µM

Nc1ccn([C@@H]2O[C@H](CO)[C@@H](O)C2O)c(=O)n1 (some centres not stated)
inconclusive: Potency [1] 10.5 µM [cytotoxic, partial curve, poor fit] | Potency [3] 16.6 µM [cytotoxic, partial curve, poor fit] | Potency [5] 2.09 µM [cytotoxic, full curve, poor fit] | Potency [6] 4.18 µM [cytotoxic, partial curve, poor fit] | Potency [16] 33.2 µM [cytotoxic, single point]
inactive: Potency [4] | Potency [7] | Potency [9] | Potency [18] | Potency [11]

COc1cc2nc(-c3cc(F)ccc3O)nc(N[C@@H]3CNC[C@@H]3C(C)(C)O)c2cc1OC
active: Potency [6] 16.6 µM | Potency [16] 13.2 µM | Potency [9] 20.9 µM | Potency [10] 0.935 µM
inconclusive: Potency [8] 29.6 µM [cytotoxic, partial curve, poor fit] | Potency [18] 5.26 µM [cytotoxic, full curve]

COc1ccc(C=Cc2cc(OC)c(OC)c(OC)c2)cc1NC(=O)[C@H](N)CO
inactive: Potency [10]
inconclusive: Potency [14] 0.0148 µM [cytotoxic, full curve] | Potency [18] 0.0053 µM [cytotoxic, partial curve, poor fit] | Potency [11] 0.0047 µM [cytotoxic, full curve] | Potency [13] 0.0033 µM [cytotoxic, full curve]
active: Potency [3] 0.0017 µM | Potency [7] 0.001 µM | Potency [16] 0.0026 µM | Potency [12] 0.001 µM

CCCCCCNC(=O)n1cc(F)c(=O)[nH]c1=O
active: Potency [6] 8.33 µM | Potency [11] 5.26 µM
inactive: Potency [19]
inconclusive: Potency [5] 11.8 µM [cytotoxic, partial curve, poor fit] | Potency [7] 8.33 µM [cytotoxic, full curve, poor fit] | Potency [16] 3.32 µM [cytotoxic, partial curve, poor fit] | Potency [8] 23.5 µM [cytotoxic, partial curve, poor fit] | Potency [9] 23.5 µM [cytotoxic, single point] | Potency [10] 10.5 µM [cytotoxic, partial curve, poor fit] | Potency [18] 3.72 µM [cytotoxic, full curve, poor fit] | Potency [12] 0.209 µM [rising, full curve, poor fit]

Fetched by structure from the list above, 2 records:
CCCCCCNC(=O)n1cc(F)c(=O)[nH]c1=O
active: Potency [6] 8.33 µM | Potency [11] 5.26 µM
inactive: Potency [19]
inconclusive: Potency [5] 11.8 µM [cytotoxic, partial curve, poor fit] | Potency [7] 8.33 µM [cytotoxic, full curve, poor fit] | Potency [16] 3.32 µM [cytotoxic, partial curve, poor fit] | Potency [8] 23.5 µM [cytotoxic, partial curve, poor fit] | Potency [9] 23.5 µM [cytotoxic, single point] | Potency [10] 10.5 µM [cytotoxic, partial curve, poor fit] | Potency [18] 3.72 µM [cytotoxic, full curve, poor fit] | Potency [12] 0.209 µM [rising, full curve, poor fit]

COc1cc2nc(-c3cc(F)ccc3O)nc(N[C@@H]3CNC[C@@H]3C(C)(C)O)c2cc1OC
active: Potency [6] 16.6 µM | Potency [16] 13.2 µM | Potency [9] 20.9 µM | Potency [10] 0.935 µM
inconclusive: Potency [8] 29.6 µM [cytotoxic, partial curve, poor fit] | Potency [18] 5.26 µM [cytotoxic, full curve]

More compounds

Cc1cnc(Nc2ccc(F)cc2Cl)nc1-c1c[nH]c(C(=O)N[C@H](CO)c2cccc(Cl)c2)c1
inconclusive: Potency [4] 37.2 µM [cytotoxic, single point]
active: Potency [3] 18.7 µM | Potency [16] 18.7 µM | Potency [17] 20.9 µM | Potency [12] 18.7 µM

CC[C@]12C=CCN3CC[C@@]4(c5cc([C@@]6(C(=O)OC)C[C@H]7C[C@@H](C(C)(F)F)CN(Cc8c6[nH]c6ccccc86)C7)c(OC)cc5N(C)[C@H]4[C@@](O)(C(=O)OC)[C@H]1OC(C)=O)[C@@H]32
active: Potency [14] 0.0469 µM | Potency [8] 0.0093 µM | Potency [12] 0.001 µM
inconclusive: Potency [5] 33.2 µM [rising, single point] | Potency [10] 0.0017 µM [cytotoxic, full curve, poor fit] | Potency [18] 0.003 µM [cytotoxic, full curve] | viability (% of DMSO) [11] 28% [cytotoxic] | Potency [13] 0.469 µM [cytotoxic, full curve]

CC(C)C[C@H](NC(=O)[C@@H](O)[C@H](N)Cc1ccccc1)C(=O)O
active: Potency [1] 20.9 µM | Potency [7] 20.9 µM | Potency [8] 26.4 µM | Potency [10] 20.9 µM
inconclusive: Potency [14] 33.2 µM [cytotoxic, single point] | Potency [5] 0.935 µM [cytotoxic, full curve, poor fit] | Potency [6] 33.2 µM [cytotoxic, partial curve, poor fit] | Potency [11] 37.2 µM [cytotoxic, partial curve, poor fit] | Potency [19] 29.6 µM [cytotoxic, single point]

CC1(C)C(N(O)C(=O)Nc2ccc(Cl)cc2)N(c2ccc(Cl)cc2)C(=O)N1CC(=O)NN=CC=Cc1ccc([N+](=O)[O-])o1 (configuration not stated)
active: Potency [1] 7.43 µM | Potency [3] 16.6 µM | Potency [4] 8.33 µM | Potency [8] 13.2 µM | Potency [18] 8.33 µM
inconclusive: Potency [5] 0.662 µM [cytotoxic, full curve, poor fit]

NC(=O)Nc1cc(-c2ccc(CN3CCOCC3)cc2)sc1C(N)=O
active: Potency [5] 5.9 µM | Potency [8] 18.7 µM | Potency [9] 16.6 µM | Potency [18] 0.132 µM | Potency [11] 0.833 µM
inconclusive: Potency [3] 16.6 µM [cytotoxic, partial curve, poor fit] | viability (% of DMSO control) [12] 4.29% [cytotoxic]
